The record followed here is the supplement of paper PMC7666118.

Protein sequences, listed by entry. Tags and fused reporters are not part of them. Lines headed by an entry give the natural chain unless they say otherwise; changes in a name come on top.
UniProt O95427: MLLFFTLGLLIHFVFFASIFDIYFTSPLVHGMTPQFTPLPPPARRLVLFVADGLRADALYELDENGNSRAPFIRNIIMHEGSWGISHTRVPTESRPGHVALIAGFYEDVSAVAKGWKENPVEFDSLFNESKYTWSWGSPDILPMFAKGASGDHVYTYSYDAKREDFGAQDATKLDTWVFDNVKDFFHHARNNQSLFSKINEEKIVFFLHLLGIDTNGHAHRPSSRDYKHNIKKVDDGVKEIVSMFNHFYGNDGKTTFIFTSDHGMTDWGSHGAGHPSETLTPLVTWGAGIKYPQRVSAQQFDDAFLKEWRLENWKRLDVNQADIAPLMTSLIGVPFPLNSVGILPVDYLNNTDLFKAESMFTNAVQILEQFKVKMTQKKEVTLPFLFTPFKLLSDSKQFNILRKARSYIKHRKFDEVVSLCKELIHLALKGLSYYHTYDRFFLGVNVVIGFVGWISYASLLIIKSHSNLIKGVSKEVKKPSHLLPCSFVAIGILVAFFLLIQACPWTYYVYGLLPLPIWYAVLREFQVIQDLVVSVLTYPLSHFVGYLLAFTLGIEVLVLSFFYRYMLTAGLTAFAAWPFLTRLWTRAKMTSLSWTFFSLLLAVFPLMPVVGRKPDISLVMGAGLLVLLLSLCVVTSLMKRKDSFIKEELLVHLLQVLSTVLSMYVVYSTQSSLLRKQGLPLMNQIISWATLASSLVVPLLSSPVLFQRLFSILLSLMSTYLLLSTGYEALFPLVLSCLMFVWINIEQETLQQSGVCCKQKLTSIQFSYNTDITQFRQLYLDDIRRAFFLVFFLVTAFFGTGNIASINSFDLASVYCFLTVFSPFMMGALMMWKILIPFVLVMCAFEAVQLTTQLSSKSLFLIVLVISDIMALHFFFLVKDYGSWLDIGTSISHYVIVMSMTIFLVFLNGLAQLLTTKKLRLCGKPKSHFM
UniProt Q9BTU6: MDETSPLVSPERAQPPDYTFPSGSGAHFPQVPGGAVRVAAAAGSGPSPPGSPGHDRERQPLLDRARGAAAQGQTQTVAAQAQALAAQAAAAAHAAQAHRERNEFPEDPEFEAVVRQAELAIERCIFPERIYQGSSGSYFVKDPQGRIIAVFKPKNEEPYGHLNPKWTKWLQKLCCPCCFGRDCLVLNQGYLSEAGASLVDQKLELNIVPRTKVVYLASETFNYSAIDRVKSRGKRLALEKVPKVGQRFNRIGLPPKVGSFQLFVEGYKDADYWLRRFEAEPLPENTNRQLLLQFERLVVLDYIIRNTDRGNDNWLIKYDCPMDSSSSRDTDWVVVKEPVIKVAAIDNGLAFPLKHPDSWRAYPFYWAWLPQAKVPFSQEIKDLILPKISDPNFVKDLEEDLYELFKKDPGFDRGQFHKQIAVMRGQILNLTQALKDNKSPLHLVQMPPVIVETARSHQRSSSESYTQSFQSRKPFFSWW
UniProt Q9Y244: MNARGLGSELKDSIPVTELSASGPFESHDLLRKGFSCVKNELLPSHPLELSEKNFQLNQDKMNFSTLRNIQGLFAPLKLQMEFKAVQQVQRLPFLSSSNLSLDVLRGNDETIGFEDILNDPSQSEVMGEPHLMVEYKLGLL
UniProt Q9Y237, whole entry: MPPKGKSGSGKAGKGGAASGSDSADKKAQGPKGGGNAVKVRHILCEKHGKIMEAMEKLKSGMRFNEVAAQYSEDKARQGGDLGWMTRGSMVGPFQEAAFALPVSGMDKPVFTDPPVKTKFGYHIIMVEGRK
UniProt P28340: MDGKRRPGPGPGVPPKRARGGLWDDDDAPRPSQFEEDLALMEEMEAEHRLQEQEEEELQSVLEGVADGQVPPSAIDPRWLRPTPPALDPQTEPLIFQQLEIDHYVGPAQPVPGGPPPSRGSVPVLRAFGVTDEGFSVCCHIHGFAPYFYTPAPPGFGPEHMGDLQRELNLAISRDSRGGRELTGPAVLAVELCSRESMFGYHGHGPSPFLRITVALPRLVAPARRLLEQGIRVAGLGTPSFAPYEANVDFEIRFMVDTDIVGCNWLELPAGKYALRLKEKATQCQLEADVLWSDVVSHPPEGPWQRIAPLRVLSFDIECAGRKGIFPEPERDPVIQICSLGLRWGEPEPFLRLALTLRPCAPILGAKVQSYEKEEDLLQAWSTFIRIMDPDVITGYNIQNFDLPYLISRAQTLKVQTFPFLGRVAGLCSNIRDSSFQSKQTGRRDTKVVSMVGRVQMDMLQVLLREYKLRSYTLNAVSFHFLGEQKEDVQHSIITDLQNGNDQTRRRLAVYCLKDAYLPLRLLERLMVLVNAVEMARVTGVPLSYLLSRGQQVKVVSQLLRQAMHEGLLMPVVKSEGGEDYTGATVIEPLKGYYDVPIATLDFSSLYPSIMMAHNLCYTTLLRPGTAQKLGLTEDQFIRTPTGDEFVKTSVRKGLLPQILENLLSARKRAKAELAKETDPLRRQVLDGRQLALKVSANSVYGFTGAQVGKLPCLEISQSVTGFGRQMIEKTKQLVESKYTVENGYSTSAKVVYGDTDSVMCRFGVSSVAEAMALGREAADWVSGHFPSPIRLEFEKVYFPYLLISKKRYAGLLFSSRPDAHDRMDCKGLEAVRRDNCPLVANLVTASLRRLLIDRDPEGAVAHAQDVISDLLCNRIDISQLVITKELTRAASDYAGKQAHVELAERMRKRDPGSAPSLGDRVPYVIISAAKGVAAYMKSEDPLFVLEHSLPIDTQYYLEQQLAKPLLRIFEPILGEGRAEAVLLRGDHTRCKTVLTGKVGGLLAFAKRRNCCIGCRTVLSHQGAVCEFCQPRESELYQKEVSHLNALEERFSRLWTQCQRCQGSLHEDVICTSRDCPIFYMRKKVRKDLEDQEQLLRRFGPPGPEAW
UniProt O60927: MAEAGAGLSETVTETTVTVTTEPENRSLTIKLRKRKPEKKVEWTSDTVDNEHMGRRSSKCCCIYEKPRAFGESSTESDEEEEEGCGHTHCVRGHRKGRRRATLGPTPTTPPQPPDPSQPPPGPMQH
UniProt Q9UIW2: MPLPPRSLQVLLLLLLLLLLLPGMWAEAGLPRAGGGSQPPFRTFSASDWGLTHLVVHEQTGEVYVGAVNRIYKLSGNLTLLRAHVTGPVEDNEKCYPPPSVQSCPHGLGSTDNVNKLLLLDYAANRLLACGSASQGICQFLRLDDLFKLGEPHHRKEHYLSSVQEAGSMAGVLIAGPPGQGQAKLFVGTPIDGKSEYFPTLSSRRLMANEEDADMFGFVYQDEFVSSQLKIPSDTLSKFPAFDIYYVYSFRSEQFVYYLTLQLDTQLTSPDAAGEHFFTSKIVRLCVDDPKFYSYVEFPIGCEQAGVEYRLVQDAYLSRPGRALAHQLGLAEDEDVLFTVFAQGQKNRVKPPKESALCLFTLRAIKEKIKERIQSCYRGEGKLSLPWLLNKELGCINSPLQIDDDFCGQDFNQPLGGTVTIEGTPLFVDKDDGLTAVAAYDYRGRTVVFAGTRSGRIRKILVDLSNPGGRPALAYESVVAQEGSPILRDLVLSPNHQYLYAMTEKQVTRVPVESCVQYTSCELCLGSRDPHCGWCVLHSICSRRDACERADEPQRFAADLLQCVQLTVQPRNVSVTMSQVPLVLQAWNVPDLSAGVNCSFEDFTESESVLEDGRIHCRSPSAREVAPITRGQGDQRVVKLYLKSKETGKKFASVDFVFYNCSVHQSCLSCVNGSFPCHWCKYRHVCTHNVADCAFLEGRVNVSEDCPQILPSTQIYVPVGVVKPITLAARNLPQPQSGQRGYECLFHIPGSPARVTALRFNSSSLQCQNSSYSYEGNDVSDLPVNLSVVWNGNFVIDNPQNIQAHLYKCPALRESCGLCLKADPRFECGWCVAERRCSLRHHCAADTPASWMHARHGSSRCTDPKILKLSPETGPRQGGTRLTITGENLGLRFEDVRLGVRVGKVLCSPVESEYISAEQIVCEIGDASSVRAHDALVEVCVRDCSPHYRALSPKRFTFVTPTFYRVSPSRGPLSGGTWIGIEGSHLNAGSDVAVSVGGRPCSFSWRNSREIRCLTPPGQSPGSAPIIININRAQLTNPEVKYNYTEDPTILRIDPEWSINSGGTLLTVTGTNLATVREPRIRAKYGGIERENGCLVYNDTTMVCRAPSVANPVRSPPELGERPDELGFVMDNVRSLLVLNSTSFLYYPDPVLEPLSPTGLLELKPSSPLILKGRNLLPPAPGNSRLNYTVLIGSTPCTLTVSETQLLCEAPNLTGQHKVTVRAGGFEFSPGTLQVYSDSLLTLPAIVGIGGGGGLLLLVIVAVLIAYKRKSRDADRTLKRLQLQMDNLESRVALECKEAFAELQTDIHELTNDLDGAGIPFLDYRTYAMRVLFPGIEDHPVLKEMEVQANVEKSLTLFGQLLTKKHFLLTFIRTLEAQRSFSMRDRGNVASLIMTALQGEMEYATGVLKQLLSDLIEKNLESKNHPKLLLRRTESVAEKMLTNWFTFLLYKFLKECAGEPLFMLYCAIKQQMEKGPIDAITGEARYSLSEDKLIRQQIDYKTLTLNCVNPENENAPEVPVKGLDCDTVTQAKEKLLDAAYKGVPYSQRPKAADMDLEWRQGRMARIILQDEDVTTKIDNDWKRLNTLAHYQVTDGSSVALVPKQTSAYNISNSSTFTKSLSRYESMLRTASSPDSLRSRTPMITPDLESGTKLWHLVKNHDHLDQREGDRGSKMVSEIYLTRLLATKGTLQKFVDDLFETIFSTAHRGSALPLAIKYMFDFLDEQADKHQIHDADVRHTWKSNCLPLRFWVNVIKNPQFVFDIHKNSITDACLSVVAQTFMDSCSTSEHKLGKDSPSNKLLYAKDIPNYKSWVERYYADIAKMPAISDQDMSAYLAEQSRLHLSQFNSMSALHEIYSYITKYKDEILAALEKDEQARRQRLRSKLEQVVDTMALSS
UniProt Q9UBF8: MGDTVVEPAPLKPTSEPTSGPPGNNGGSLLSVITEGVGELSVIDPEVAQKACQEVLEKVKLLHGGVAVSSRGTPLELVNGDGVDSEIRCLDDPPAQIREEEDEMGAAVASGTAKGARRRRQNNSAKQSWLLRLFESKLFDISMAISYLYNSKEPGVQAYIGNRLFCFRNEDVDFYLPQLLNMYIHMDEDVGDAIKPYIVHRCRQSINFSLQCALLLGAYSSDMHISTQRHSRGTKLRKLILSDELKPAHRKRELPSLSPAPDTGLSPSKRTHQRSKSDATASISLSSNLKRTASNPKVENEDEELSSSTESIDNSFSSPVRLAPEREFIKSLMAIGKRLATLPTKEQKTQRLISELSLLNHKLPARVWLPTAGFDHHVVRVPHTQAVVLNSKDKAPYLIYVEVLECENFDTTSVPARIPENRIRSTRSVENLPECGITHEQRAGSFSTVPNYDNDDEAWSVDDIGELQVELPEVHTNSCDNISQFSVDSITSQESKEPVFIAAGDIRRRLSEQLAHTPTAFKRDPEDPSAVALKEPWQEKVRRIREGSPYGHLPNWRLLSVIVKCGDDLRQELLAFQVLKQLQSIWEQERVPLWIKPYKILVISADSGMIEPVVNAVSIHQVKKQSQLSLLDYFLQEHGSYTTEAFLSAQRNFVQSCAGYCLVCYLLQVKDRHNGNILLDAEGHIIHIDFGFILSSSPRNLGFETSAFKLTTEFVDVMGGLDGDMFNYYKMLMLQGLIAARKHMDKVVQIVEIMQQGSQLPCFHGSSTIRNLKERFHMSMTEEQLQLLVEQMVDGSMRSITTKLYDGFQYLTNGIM
UniProt P48147: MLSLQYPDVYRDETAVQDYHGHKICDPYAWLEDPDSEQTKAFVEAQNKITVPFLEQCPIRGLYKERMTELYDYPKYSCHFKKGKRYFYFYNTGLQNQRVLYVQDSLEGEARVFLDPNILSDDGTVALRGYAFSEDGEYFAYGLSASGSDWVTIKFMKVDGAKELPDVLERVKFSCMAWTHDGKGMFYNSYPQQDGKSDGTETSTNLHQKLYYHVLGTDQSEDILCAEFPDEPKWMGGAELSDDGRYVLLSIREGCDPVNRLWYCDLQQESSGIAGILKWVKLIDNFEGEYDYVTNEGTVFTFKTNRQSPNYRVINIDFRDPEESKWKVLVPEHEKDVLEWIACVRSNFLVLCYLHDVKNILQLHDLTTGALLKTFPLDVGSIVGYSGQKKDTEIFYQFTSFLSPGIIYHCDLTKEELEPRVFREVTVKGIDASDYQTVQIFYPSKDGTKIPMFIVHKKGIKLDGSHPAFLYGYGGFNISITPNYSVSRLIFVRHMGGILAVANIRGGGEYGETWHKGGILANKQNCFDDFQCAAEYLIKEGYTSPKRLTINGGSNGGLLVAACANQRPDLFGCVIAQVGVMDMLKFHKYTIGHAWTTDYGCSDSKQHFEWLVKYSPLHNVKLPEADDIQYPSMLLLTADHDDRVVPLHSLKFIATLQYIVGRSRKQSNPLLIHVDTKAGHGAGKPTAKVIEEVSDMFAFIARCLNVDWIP

This is one part of the list.

Compound in the test: COc1ccc(Cn2ccc3ccc(C(=O)NO)cc32)cc1
Put plainly: dose-dependent thermal stabilisation call (2D-TPP, DLPTP, 10% FDR) (binary (1 = stabilised)); higher = stabilised by the compound. Particulars: system: HL-60 intact cells; concentration range 0.04-10 µM.
Regarding PIGN (UniProt O95427), the “dose-dependent thermal stabilisation call” value is inactive: 0. The same measure for PI4K2A (UniProt Q9BTU6): inactive: 0; for POLR2D (UniProt O15514): inactive: 0.

Regarding POMP (UniProt Q9Y244), the “dose-dependent thermal stabilisation call” value was inactive: 0. The same measure for PRKACA (UniProt P17612): inactive: 0. Regarding PIN4 (UniProt Q9Y237), the “dose-dependent thermal stabilisation call” value is inactive: 0. Regarding POLD1 (UniProt P28340), the “dose-dependent thermal stabilisation call” value is inactive: 0. The same measure for PPP1R11 (UniProt O60927): inactive: 0; for PLXNA1 (UniProt Q9UIW2): inactive: 0; for PI4KB (UniProt Q9UBF8): inactive: 0. The same measure for PREP (UniProt P48147): inactive: 0.
